No constants are given. Whether binding was seen depends on the method and setting. Some entries that bind do so weakly or less than the wild type.

Here are results for five molecules from US20240368286A1.

The target of experiment [1] is T1, Human GFRAL protein (Biacore analyte) (human) (UniProt Q6UXV0).
T1 sequence (looked up): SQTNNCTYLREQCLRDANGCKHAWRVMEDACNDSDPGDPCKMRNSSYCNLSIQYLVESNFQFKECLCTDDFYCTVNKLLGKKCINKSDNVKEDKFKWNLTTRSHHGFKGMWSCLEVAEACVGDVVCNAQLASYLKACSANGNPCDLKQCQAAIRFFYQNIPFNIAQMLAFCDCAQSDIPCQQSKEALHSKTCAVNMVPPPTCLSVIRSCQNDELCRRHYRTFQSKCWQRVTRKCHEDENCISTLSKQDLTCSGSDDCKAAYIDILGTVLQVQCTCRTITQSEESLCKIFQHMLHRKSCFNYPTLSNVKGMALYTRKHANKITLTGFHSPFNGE
The experiment is described as follows: Biacore SPR. (In general: SPR reads the build-up and loss of mass on a sensor chip optically.)

Experiment [2] has as its target T2, Mouse GFRAL protein (Biacore analyte) (mouse) (UniProt Q6SJE0).
T2 sequence (looked up): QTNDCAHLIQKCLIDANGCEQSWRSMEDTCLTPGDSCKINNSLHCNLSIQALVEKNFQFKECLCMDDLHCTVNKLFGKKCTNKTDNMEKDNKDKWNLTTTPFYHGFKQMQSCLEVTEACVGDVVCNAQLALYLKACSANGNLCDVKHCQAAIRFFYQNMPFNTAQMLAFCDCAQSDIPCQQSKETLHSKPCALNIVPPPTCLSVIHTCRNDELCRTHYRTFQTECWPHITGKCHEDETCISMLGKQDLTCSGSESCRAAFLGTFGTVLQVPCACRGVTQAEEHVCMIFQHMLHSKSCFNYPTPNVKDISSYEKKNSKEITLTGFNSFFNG
The experiment is described as follows: Biacore SPR.

B1: 168A7 (antibody, V domains shown)
VH: QVTLKESGPGILKPSQTLSLTCSFSGFSLSTSDMGVGWIRQPSGKGLEWLAHIWWDDDKYYNPSLKRQLTISKDNSRNQVFLKISSVDTTDTATYYCARLYDYDDEYYFDYWGQGTTLTVSS
VL: DIQMTQTKSSLSASLGDRVTISCRASQDSNNYLNWYQQKPDGTVKLLIYYTSRLHSGVPSRFSGSGSGTDYSLTISNLEHEDIATYFCQQGNTIPWTFGGGTKLEIK
As for B1, the binding entry in experiment [1] is listed as “binds”.

B2: 26D7H3aL2c (antibody, V domains shown)
VH: QVQLVQSGAEVKKPGASVKISCKVSGYTFTDYGMNWVRQTPGQGLKWVGWINTYTGEPTYADDFKDRFTFTLDASTSTAYMELRSLRSDDTAVYFCARRYGYDAGIDAWGQGTLVTVSS
VL: EIVLTQSPGTLSLSPGERATLSCRASESVESYGNNLMHWYQQKPGQAPRLLIYLASYLESGVPDRFSGSGSGTDFTLTISRLEPEDFATYYCQQNNESPWTFGQGTKVEIK
With B2, the binding entry in experiment [1] and in experiment [2] was “binds” each time.

B3: 26D7H5bL5a (antibody, V domains shown)
VH: QVQLVQSGAEVKKPGASVKVSCKVSGYTFTDYGMNWVRQAPGQGLEWMGWINTYTGEPTYAQKLQGRVTFTTDTSTSTAYMELRSLRSDDTAVYYCARRYGYDAGIDAWGQGTTVTVSS
VL: DIQMTQSPSSLSASVGDRVTITCRASESVESYGNNLMHWYQQKPGKAPKLLIYLASYLESGVPSRFSGSGSGTDFTLTISSLQPEDFATYYCQQNNESPWTFGGGTKLEIK
For the molecule B3, the binding result in experiment [1] and in experiment [2] was “binds” each time.

B4: 8E10 (antibody, V domains shown)
VH: QVQLQQSGSELVRPGSSVKISCRASGYTFSNYWMNWVKQRPGQGLEWIGQIYPGDDDADYNGKFQGKATLTADKSSSTAYMQLNTLTSEDSAVYFCTRSGRRDFDYWGQGTTLTVSS
VL: NIVLTQSPASLAVSLGQRATISCRASESIDNYGNSFMHWYQQKPGQPPKLLIYRASNLESGVPARFSGSGSRTDFTLTIDPVEADDAATYYCQQNNEDPYTFGGGTKLEIK
As for B4, the binding entry in experiment [1] is on record as “binds”.

B5: 26D7 (antibody, V domains shown)
VH: QIQLVQSGPELKKPGETVKISCKVSGYTFTDYGMNWVKQTPGKDLKWVGWINTYTGEPTYADDFKDRFAFSLEASASTAYLQINNLKNEDTATYFCARRYGYDAGIDCWGQGTTLTVSS
VL: NIVLTQSPPSLAVSLGQRATISCRASESVDSYGNNLMHWYQQKPGQPPKLLIYLASYLESGVPARFSGSGSRTDFTLTIDPVEADDAATYYCQQNNEDPWTFGGGTKLEIK
Consider B5, for which the binding result in experiment [1] and in experiment [2] was “binds” each time.
